Values quoted from earlier work in US7566550B2, “Screening method for developing drugs against pathogenic microbes having two-component system” (priority 2002, dated 2009).

Tested on: sensor kinase
Settings: cited from earlier work

Compound | effect on sensor kinase molecules in in vitro assay
Cc1cc(C(C#N)c2ccc(Cl)cc2)c(Cl)cc1NC(=O)c1cc(I)cc(I)c1O (centres unmarked) [Closantel] | non-specific aggregation of sensor kinase molecules
NC(N)=NCCc1ccc(OCCC(c2ccccc2)(c2ccccc2)c2ccccc2)cc1 [RWJ-49815] | non-specific aggregation of sensor kinase molecules
